Patent US20260201029A1
No constants are given. Whether binding was seen depends on the method and setting. Some entries that bind do so weakly or less than the wild type.

The chains behind the UniProt entries cited, without tags or fusion partners.
UniProt Q9NZD1: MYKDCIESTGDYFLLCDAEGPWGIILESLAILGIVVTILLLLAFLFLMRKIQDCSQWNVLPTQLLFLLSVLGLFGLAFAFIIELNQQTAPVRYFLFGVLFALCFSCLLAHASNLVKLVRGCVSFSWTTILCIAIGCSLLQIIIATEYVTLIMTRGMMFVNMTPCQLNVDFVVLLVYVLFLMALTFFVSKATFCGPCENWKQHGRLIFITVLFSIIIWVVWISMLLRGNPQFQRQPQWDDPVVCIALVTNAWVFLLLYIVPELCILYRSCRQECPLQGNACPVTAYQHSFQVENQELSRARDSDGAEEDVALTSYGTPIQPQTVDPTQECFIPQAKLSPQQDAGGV

What was measured:
[1] = target: human GPRC5D (G-protein coupled receptor family C group 5 member D) (human) (UniProt Q9NZD1); assay: flow cytometry, time-course cell binding on H929 cells, antibody at 10 nM (panel title; legend paragraph 51 says 5 nM), 37 C, read at 1, 3, 5 and 24 h, AF647 anti-human IgG Fc detection, MFI
[2] = target: human GPRC5D (G-protein coupled receptor family C group 5 member D) (human) (UniProt Q9NZD1); assay: time-course flow cytometry on H929 and MM.1R cells, 37 C
[3] = target: human GPRC5D (G-protein coupled receptor family C group 5 member D) (human) (UniProt Q9NZD1); assay: flow cytometry, time-course cell binding on H929 cells, antibody at 2 nM (panel title; legend paragraph 51 says 0.5 nM), 37 C, read at 1, 3, 5 and 24 h, AF647 anti-human IgG Fc detection, MFI
[4] = target: human GPRC5D (G-protein coupled receptor family C group 5 member D) (human) (UniProt Q9NZD1); assay: flow cytometry, time-course cell binding on H929 cells, antibody at 50 nM (panel title), 37 C, read at 1, 3, 5 and 24 h, AF647 anti-human IgG Fc detection, MFI
[5] = target: human GPRC5D (G-protein coupled receptor family C group 5 member D) (human) (UniProt Q9NZD1); assay: flow cytometry, time-course cell binding on MM.1R cells, antibody at 2 nM (panel title; legend paragraph 51 says 0.5 nM), 37 C, read at 1, 3, 5 and 24 h, AF647 anti-human IgG Fc detection, MFI
[6] = target: human GPRC5D (G-protein coupled receptor family C group 5 member D) (human) (UniProt Q9NZD1); assay: flow cytometry, time-course cell binding on MM.1R cells, antibody at 50 nM (panel title), 37 C, read at 1, 3, 5 and 24 h, AF647 anti-human IgG Fc detection, MFI
[7] = target: human GPRC5D (G-protein coupled receptor family C group 5 member D) (human) (UniProt Q9NZD1); assay: flow cytometry, time-course cell binding on MM.1R cells, antibody at 10 nM (panel title; legend paragraph 51 says 5 nM), 37 C, read at 1, 3, 5 and 24 h, AF647 anti-human IgG Fc detection, MFI

Measured: binding

B1: GP5B82 binder (antibody, V domains shown)
VH: QVQLVESGGGVVQPGRSLRLSCAASGFTFSNYGMHWVRQAPGKGLEWVAFIWYDGSNKYYADSVKGRFTISRDNSKNTLYLQMNSLRAEDTAVYYCAPITGYSTRWGDYWGQGTLVTVSS
VL: DIQMTQSPSSLSASVGDRVTITCRASQGIRNDLGWYQQKPGKAPKRLIYAASSLQSGVPSRFSGSGSGTEFTLTISSLQPEDFATYYCLQRNTYPLTFGGGTKVEIK
binds: [1] | [2] | [3] | [4] | [5] | [6] | [7]
